The record followed here is patent publication US20260209319A1.

Chains of the proteins cited; added tags and fusions are not shown. Lines headed by an entry give the natural chain unless they say otherwise; changes in a name come on top. A line that says so, or that is headed by a name, gives the form on record, which may keep a tag or linker.
mesothelin (soluble, recombinant) (Q13421, form named): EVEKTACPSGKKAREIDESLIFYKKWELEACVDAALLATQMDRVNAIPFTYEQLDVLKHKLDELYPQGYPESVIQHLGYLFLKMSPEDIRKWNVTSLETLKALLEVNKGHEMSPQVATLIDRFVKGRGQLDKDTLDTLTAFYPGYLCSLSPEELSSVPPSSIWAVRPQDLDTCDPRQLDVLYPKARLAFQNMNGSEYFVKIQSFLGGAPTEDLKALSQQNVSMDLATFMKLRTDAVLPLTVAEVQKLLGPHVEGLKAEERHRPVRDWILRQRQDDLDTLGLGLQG

Assay [1] addresses mesothelin (soluble, recombinant) (UniProt Q13421). In words: Octet, IgG captured on anti-human Fc (AHC) biosensor, 125 nM mesothelin, 5 min association, 5 min dissociation [con't), panel MSLN-41].
Assay [2] shares this target. The assay is described as follows: Octet, IgG captured on anti-human Fc (AHC) biosensor, 125 nM mesothelin, 5 min association, 5 min dissociation [con't), panel MSLN-43]. Background: Biolayer interferometry detects binding as a change in optical thickness at a sensor tip.
The target is the same in assay [3]. In words: Octet, IgG captured on anti-human Fc (AHC) biosensor, 125 nM mesothelin, 5 min association, 5 min dissociation [con't), panel MSLN-45].
Assay [4] has the same target. The assay is described as follows: Octet, IgG captured on anti-human Fc (AHC) biosensor, 125 nM mesothelin, 5 min association, 5 min dissociation [con't), panel MSLN-42].

These are yes or no findings as the source states them, for the method shown. Some results given as binding are weak or reduced against the parent protein; the word gives no strength.

B1: MSLN-41 (antibody, V domains shown)
VH: QVQLQESGPGLVKPSETLSLTCTVSGGSVSSYHDLWSWIRQPPGKGLEWIGYIYYSGSTNYNPSLKSRVTISVDTSKNQFSLKLSSVTAADTAVYYCARDFVLSGFDIWGQGTMVTVSS
VL: DIQMTQSPSSLSASVGDRVTITCRASQSSRYYVNWYQQKPGKAPKLLIYAASSLQSGVPSRFSGSGSGTDFTLTISSLQPEDFATYYCQQSYDASYTFGGGTKVEIK
As to B1, in assay [1], the binding result is given as “binds”.

B2: MSLN-43 (antibody, V domains shown)
VH: QVQLQESGPGLVKPSETLSLTCTVSGGSVSSFTDTWSWIRQPPGKGLEWIGYIYYSGSTNYNPSLKSRVTISVDTSKNQFSLKLSSVTAADTAVYYCARDFVLSGFDIWGQGTMVTVSS
VL: DIQMTQSPSSLSASVGDRVTITCRASQSSRYYVNWYQQKPGKAPKLLIYAASSLQSGVPSRFSGSGSGTDFTLTISSLQPEDFATYYCQQSYDASYTFGGGTKVEIK
As to B2, in assay [2], the binding result is listed as “binds”.

B3: MSLN-45 (antibody, V domains shown)
VH: QVQLQESGPGLVKPSETLSLTCTVSGGSVSSYHDLWSWIRQPPGKGLEWIGYIYYSGSTNYNPSLKSRVTISVDTSKNQFSLKLSSVTAADTAVYYCARDNVFTGFDIWGQGTMVTVSS
VL: DIQMTQSPSSLSASVGDRVTITCRASQSSRYYVNWYQQKPGKAPKLLIYAASSLQSGVPSRFSGSGSGTDFTLTISSLQPEDFATYYCQQSYDASYTFGGGTKVEIK
On to B3, for which the binding result in assay [3] is recorded as “binds”.

B4: MSLN-42 (antibody, V domains shown)
VH: QVQLQESGPGLVKPSETLSLTCTVSGGSVSSRDDLWSWIRQPPGKGLEWIGYIYYSGSTNYNPSLKSRVTISVDTSKNQFSLKLSSVTAADTAVYYCARDFVLSGFDIWGQGTMVTVSS
VL: DIQMTQSPSSLSASVGDRVTITCRASQSSRYYVNWYQQKPGKAPKLLIYAASSLQSGVPSRFSGSGSGTDFTLTISSLQPEDFATYYCQQSYDASYTFGGGTKVEIK
In the case of B4, the binding result in assay [4] was “binds”.
